Reference: article PMC12423330
No constants are given. Whether binding was seen depends on the method and setting. Binding seen in cells or lysates may run through a third protein. Some results given as binding are weak or reduced against the parent protein; the word gives no strength.

Amino acid sequences for entries named in this document (tags omitted).
UniProt Q8BRC6: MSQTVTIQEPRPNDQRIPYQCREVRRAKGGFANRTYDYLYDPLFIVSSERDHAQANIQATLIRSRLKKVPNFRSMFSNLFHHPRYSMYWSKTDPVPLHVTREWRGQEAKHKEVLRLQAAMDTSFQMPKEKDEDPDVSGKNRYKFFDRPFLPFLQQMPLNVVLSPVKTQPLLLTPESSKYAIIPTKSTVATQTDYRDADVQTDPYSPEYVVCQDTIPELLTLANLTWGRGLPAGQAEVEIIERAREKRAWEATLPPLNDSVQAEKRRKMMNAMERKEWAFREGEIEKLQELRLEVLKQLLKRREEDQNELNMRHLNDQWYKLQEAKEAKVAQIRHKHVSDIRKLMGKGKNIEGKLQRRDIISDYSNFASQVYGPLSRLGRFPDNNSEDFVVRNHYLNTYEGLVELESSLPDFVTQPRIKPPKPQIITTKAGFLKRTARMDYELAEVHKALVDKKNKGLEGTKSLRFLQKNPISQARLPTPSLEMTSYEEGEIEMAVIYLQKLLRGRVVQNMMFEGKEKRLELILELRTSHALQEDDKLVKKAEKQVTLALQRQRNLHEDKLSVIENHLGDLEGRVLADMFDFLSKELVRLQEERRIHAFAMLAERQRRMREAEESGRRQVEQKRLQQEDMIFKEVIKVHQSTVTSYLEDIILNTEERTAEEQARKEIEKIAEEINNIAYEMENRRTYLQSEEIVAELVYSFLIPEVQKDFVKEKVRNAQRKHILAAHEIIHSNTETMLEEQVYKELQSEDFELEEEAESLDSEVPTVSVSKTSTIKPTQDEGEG
UniProt A0JP43: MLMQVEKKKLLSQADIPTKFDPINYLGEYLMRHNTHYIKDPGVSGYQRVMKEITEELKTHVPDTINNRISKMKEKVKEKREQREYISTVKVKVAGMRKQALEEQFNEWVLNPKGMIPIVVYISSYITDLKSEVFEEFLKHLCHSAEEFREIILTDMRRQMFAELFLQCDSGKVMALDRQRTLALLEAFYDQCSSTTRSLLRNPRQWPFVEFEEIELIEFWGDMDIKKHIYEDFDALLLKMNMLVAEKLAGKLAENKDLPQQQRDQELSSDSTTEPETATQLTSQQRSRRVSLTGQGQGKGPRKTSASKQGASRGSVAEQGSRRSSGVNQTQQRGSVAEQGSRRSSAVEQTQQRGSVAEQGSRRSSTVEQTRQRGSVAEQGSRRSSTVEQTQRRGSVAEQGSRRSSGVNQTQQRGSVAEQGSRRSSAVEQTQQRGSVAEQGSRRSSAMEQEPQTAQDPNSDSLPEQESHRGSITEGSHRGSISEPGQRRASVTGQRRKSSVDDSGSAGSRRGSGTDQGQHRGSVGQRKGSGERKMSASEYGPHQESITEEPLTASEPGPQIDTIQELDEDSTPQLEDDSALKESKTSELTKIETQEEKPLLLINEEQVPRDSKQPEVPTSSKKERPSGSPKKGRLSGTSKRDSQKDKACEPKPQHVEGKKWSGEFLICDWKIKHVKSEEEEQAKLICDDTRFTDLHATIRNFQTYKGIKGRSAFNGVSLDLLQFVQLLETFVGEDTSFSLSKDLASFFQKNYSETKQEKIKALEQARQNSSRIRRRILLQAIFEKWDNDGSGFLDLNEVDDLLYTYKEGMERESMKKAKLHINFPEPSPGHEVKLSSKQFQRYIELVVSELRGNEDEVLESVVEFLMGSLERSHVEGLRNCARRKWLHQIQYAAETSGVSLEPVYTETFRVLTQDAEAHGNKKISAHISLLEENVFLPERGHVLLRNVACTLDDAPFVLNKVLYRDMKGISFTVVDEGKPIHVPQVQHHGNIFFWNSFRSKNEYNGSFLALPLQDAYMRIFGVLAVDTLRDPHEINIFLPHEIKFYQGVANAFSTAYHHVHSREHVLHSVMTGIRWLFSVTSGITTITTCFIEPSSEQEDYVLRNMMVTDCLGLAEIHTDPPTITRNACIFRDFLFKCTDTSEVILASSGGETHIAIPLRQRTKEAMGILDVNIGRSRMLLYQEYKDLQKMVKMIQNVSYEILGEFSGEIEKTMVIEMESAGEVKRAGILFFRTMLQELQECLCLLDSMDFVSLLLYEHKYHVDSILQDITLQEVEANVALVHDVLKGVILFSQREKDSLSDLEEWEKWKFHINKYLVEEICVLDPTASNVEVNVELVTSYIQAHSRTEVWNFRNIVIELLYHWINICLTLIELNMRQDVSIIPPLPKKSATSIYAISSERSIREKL
UniProt E9PY46: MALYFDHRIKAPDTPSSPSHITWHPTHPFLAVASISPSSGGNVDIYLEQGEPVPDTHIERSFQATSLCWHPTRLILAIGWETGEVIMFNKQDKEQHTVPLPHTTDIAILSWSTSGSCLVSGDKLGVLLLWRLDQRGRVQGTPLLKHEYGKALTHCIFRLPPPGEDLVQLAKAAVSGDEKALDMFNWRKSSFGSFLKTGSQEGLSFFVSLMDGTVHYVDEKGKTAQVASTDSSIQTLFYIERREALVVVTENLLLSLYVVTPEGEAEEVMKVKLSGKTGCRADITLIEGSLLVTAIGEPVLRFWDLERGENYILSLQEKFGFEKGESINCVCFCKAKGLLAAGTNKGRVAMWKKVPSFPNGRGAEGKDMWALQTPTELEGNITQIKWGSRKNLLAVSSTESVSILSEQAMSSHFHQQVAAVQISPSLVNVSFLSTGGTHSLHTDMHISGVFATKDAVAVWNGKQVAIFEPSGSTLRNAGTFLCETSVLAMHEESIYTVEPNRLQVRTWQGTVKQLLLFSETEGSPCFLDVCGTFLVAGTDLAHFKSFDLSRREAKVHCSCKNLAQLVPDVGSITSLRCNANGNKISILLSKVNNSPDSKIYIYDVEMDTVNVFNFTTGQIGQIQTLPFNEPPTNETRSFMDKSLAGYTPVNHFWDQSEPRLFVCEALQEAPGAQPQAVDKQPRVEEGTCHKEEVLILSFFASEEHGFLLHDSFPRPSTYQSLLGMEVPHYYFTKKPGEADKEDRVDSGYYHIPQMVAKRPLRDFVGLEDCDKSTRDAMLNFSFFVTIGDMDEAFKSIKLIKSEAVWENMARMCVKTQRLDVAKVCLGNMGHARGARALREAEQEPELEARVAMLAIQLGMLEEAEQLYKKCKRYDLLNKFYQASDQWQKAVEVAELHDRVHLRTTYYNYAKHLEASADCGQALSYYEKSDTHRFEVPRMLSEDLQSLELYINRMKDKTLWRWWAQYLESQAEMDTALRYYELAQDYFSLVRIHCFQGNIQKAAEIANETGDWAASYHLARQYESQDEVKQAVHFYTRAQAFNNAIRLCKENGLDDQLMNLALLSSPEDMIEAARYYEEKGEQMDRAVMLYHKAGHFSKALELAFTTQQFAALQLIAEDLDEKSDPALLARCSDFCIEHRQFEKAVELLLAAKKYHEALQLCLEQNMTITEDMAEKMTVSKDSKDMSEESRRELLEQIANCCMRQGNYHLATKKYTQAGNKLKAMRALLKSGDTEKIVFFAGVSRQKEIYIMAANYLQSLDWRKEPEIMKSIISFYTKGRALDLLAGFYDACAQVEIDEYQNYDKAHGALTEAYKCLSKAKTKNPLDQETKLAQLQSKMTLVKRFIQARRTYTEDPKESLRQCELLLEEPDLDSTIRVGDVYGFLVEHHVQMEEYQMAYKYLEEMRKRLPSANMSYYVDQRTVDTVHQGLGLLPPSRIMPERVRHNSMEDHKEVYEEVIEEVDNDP

Key:
[1] = target: CFAP91-BioID2-3×FLAG (mouse) (UniProt Q8BRC6); assay: co-IP; IP with an anti-FLAG antibody from testis lysate of Cfap91-/- TG and WT males, then immunoblotting
[2] = target: CFAP91-BioID2-3×FLAG (mouse) (UniProt Q8BRC6); assay: as above; remark: listed apart in the source
[3] = target: CFAP91-BioID2-3×FLAG (mouse) (UniProt Q8BRC6); assay: co-IP; IP from postnatal day 15 (P15) testes of WT and Cfap91-/- TG males, then immunoblotting
[4] = target: EFCAB5 expressed in HEK293T cells (UniProt A0JP43); assay: co-IP; EFCAB5 and RGS22 expressed in HEK293T cells; IP and immunoblotting in the presence and absence of Ca2+

IFT140 (from UniProt E9PY46 1-1464)
binding [1]: binds

B1: CFAP251 (protein, UniProt E9Q743 1-1299)
chain: MSDTEENPLEESRESGEMEEEKEEKKEEEEEEEEGEKEKEEEEEEEKGKEEEKEEEKEEGKEEEKKEEEEEKGKKEEEEEEEEEGKGKEEEKEEEKEEEEKEEEKEKEEEEEEEGKGKEEEEEGKEEEEEEKEEEEKEEEKEEEEEEEEEKEEYNPSFEEDALQQSLTEGSLSWEESQEDGEGLEEWVEKEEQREGEEVRGEEESEVRGREEEEGWEEEKSGEEEKSEESERSKERGGEEEGQEKEEAEHEGEREEGREEEEKEKSVEREEEEEEEDTETTETKAGRAKEEKKEKQNKTALVDNIVISHEPPRSSSSLADSPEVSQIYKDNSMKVDDTEEASQKPEDILAQGKDEARLSLEERRKLFQSKGLSAEESLVSVSTEDTLFQKEEDSKVYPLSMTWSFGWNSSLPVYYMREDRRVILYTCAHTAIMYDVVRNTQYHLQGHPNIISCLCVSEDRRWIATADEGPDCLIIIWDSFTGIPVHTIFDSCPEGNGMRSIAITRDSKFLATISDSATQKVCIWKWTLAVETPACTLELPKEYGFQDNLVFNPANNKELVSNSKTQAIYYCWFEDKGILAHSAPVLTEKTFNKLVGKFSQSVFHLKLPQVLSATKEGKLVVWDIHYPSSTSSSAISAFPFIKPRKLVHLQKEAITVLMTIDSYIVTGDIKGNIKFYDHTLSVVNWYSNFKLGAIRTLSFSKTIPSLPTEKSNLPTDCTLRGDLFVVRNFIIGTFDATVYHMTVDGTKLEKLFVEPRDAVYAVSCHPYQPLIAVGSVCGMIKVWDFEKKVYLFSRTFEKGLGVQCLTYNPEGALLGAGFTEGTVYILDAMSLENESPEPFKYSKSSVSHCCFSHDSNYMATADVNFTVAVYMVVVKNGQRVWEYLARLRSHQNSIQSLLFGVHLDSNEPRLLSLGKDRFLIEYNLVKSCKDHLDVLDVHRTDQGNYPTCMIWYPPLTKELFLLICNSGYKVKLFNATTKMCRKTLLGPAYGSPIEHAQVLPVKSTLELQKRYLVFINKDKVGLQILPVDGNPHKTCAIVCHPNGVAGMALSYDGRFAFTAGGQDRSVVQWKINLGALEAAVSLGGEDLTPFYGLVSGGREGKFYRELEDYFYYSQIRSQGIDTMETRQVSEHICLSELPFVMRAIGFYPSEEKIEDMFNEIKFSEYVETGKLIDKINLPDFLKVYLNHRPPFGNTMDGIQNSFNVLGYTNSEGKKAIRREDFLNLLLTKGEHMTEEEMIDCFSTLFGLTPEGWKSEPAATCINGPEICLQKELPEEITAEIFTTEILGLTLSDSSEQLIQ
binding [2]: binds
binding [3]: binds

B2: RGS22 expressed in HEK293T cells (protein, UniProt G3UYX5 1-1258)
chain: MPEKRLSAEPPEVTEEEFENYLATDNFLVDYFNEFLSLPTFPEAIRFNVDYGVFEVVNDAPQLLEKQLKKILQNQQPRNPIYDVVRKGKSDSKSTQKSVPCEDEAINVNYSIMCLKREQGINWIKRERLPAFLESDCYFEYRLAKLISQATWSSTGMNFIVGTNFTPWILRRPPAPPPPSTDEDNYMIMKKFYVSLGQASYTQTKDWFTLAKESENTVTMASLPCCIPHHQTASPVIATASEIFDDGVHPRTIKSLSKSSKAVSELDEEEEGSISMKDSPSQALLRVYLEKKGGKERNLTLHFSSVEEFLDAYIIFILREAIQHITGQSLSDTPEYINYYKVSHVIFDKVPPVPSNKAIVSPPVEMVEEISKDRLENVSLSSESESIGPESRADWCISHRTYDIGNRREFERFKKFLKGTLGERYWWLWMDIERLKVLKDPERHQRHLEKMKKCYLVSSGERYLSAEILSKFKLLHGSRWTADHLKNIQAEVLKPLLLYWAPRFCVTHSASAKNASTELKFWRLRQEKPRKDVDPFPQMATLLPLRPKSCIPQTPEVQGEEINLFQPSKFKKLSKINAGTQQLGRSEPLNAVSSKDGGLEKGSKRLPESTTVVRLTSFTDISECLKPQLERKYTYTEEHNVKTVSNVGALGGFDMENLLQSLYVENRAGFFFTKFCENSGNKLWKHSVYFWFDLQAYHQLFYQETLQPFKVCKQAQYLFATYIAPSASFDIGLHQEGKKDIYMKIQPPFEDLFDTAEEFILLSLLEPWTQMVMSDKMAYKKVELQEETRQLDSACFRKLHALHKETISKKAEDTTGYAMAKLSLSDVSKQTEYWLNVPEGYKHFTFTDLLNNKLEFEHFRQFLESHSSSLDLMCWIDIEQFRRIIFKDQKQREEKSIYIKNKYLNKKYFFGPRSPASLHQQNQIMLLSGGWGRILHEQLDASVLVEIQKHVLNRLENVWLPLFLSSEQFASRQKIKTQMKDIADELLLQRHDRKIGVWKPVESKWISSSCEIIAFRKALLNPVIARQFQRFVALKGDLLENGVLFWQEVQKFKDLCHSHCDESIIHKKITTIINCFINSYIPPALQIDIPVEQAQKILEHRKELGPYVFREAQMTIFGVLFKFWPQFCEFRKNLTDEKIMSVLERRQEHKQKRKASDTEEDKAGKSGVKQYASTTGSLTKPVLGSESLLVLQSYGRQPTWCYSKYIEALEQERILLKIQEEVERKMFTGTSSFTNLLKPSTGSALSLKKNVSLHSIQR
binding [4]: binds
